The values that follow come from the supplement of paper PMC6411743.

± gives the standard deviation of the averaged measurements. This is a selection; strong and weak results do not stand in their true shares.

Common to all, as to experiment: NP40-soluble protein abundance relative to vehicle (solubility fold change) (ratio); higher = more soluble protein in presence of ATP
The target in test [1] is T1, C9JA69 and related entries (UniProt Q8WY36).
T1 sequence (whole entry): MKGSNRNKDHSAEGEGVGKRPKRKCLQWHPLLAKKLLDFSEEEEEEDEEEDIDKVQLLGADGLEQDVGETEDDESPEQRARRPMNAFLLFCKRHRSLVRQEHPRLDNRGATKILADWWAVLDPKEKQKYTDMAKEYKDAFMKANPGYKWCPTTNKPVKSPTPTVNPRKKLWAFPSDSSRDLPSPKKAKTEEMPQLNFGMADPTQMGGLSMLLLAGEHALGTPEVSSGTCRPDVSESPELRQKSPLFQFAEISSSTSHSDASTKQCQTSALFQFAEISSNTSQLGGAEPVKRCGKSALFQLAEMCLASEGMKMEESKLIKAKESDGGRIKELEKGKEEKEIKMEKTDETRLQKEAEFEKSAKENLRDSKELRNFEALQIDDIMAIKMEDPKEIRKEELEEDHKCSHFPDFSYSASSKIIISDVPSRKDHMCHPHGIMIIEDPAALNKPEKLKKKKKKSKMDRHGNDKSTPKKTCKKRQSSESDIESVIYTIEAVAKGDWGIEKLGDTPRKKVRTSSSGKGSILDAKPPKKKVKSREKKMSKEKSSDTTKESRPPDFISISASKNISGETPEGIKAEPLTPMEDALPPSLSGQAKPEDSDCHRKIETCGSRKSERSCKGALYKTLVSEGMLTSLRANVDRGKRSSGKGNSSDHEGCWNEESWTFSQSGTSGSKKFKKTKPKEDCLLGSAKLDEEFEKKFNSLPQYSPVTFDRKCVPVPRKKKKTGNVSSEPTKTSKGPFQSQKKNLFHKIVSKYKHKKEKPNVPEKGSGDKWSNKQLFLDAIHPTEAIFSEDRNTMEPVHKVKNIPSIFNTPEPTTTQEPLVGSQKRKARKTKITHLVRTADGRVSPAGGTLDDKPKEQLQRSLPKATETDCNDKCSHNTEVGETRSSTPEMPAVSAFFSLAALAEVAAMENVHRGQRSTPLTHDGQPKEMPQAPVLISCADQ
The method, boiled down:
(§1)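 Across three independent experiments, values are fold changes against the detergent-processed vehicle for each replicate, based on vsn-normalised intensities. The samples were Jurkat crude lysate treated with eight concentrations (0.1 to 10 mM) for 10 min at room temperature and then 3 min at 37 °C. Lysate was solubilised with 0.8% NP40 and benzonase, ultracentrifuged, and the supernatant analysed by TMT-labelled LC-MS/MS.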

Test [2] deals with T2, D6R9V8 and related entries (UniProt Q9UKY7).
T2 sequence (whole entry): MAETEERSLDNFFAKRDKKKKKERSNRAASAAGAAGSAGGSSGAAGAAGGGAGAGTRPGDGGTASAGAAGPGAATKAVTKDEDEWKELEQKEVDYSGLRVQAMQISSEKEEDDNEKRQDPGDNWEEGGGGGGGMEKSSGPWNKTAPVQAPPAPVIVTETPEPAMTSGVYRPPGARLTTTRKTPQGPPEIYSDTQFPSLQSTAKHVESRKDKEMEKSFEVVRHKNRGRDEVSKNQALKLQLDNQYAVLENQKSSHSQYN
The method, boiled down:
as §1

Test [3] concerns the target T3, UniProt A2RTX5 and related entries.
T3 sequence (whole entry): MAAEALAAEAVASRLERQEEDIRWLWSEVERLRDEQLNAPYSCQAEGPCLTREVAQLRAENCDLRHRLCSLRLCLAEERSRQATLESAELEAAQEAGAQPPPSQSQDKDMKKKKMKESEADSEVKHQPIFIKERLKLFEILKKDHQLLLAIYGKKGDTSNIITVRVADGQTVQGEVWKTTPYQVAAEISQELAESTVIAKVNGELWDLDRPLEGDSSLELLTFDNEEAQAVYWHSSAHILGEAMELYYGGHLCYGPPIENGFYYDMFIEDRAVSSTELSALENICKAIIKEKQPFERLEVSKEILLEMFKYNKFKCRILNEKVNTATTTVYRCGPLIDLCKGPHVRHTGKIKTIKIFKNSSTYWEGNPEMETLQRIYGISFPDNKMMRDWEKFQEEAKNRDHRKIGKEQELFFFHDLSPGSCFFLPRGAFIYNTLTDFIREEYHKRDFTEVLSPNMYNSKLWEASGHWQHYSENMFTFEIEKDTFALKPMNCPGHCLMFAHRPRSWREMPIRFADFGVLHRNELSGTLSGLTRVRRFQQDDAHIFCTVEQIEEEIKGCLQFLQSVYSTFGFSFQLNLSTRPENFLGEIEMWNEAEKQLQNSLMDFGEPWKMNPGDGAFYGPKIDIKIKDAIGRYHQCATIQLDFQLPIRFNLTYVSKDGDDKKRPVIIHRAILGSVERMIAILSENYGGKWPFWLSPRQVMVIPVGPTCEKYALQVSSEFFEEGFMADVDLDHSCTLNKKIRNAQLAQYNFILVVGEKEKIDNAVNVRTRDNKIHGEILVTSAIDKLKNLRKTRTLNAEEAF
In a few lines: as §1

The target in test [4] is T4, UniProt A3KN83 and related entries.
T4 sequence (whole entry): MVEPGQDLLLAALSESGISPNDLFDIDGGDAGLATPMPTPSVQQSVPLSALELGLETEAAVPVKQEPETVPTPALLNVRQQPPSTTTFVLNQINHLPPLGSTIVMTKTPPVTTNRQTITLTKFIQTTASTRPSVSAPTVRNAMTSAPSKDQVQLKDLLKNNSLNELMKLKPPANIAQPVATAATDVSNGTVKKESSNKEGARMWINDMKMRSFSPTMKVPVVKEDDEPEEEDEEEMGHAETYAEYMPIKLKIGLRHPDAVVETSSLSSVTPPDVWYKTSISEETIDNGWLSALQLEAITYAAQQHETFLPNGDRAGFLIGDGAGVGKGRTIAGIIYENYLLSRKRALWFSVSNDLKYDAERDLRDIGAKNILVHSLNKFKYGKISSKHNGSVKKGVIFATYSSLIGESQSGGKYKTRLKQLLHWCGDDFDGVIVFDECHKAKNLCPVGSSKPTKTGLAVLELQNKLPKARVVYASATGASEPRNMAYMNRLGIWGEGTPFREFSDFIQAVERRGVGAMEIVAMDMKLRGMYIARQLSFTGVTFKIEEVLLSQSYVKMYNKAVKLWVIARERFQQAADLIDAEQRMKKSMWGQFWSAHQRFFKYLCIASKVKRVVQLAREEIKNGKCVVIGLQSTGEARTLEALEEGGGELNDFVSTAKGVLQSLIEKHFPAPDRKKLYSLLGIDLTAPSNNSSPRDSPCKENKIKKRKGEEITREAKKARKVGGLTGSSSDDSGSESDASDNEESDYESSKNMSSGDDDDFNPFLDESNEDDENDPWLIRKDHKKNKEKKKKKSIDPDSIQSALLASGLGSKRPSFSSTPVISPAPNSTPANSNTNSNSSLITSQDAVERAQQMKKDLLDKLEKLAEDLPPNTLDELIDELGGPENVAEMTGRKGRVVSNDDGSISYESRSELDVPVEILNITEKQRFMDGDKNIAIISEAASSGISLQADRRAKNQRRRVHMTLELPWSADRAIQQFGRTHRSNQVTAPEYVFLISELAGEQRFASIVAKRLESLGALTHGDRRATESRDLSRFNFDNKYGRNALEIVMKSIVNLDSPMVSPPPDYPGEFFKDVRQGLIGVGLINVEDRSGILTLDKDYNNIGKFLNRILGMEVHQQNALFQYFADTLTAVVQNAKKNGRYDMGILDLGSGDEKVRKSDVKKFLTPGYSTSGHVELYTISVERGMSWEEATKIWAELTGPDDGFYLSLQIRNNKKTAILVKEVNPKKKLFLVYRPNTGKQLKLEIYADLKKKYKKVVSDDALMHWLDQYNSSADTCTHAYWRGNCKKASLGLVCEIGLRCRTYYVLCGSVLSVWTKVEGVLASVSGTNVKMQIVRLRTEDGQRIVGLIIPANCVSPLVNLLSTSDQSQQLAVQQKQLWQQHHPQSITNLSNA
In a few lines: as §1

As to `Nc1ncnc2c1ncn2[C@@H]1O[C@H](COP(=O)(O)OP(=O)(O)OP(=O)(O)O)[C@@H](O)[C@H]1O` [adenosine triphosphate], the NP40-soluble protein abundance in test [1] (concentration: 1mM) is 1.06 ± 0.014; in test [1] (concentration: 2mM), 1.08 ± 0.022; in test [1] (concentration: 4mM) it was 1.11 ± 0.034; in test [1] (concentration: 6mM), 1.2 ± 0.047; in test [1] (concentration: 8mM), 1.1 ± 0.04; in test [1] (concentration: 10mM), 1.13 ± 0.074. Moreover, the NP40-soluble protein abundance in test [2] (concentration: 1mM) is 0.892 ± 0.078; in test [2] (concentration: 2mM) it was 0.928 ± 0.07; in test [2] (concentration: 4mM), 0.903 ± 0.051; in test [2] (concentration: 6mM) it was 1.03 ± 0.09; in test [2] (concentration: 8mM), 0.898 ± 0.065; in test [2] (concentration: 10mM) it was 0.898 ± 0.087. In addition, the NP40-soluble protein abundance in test [3] (concentration: 1mM) amounted to 0.975 ± 0.021; in test [3] (concentration: 2mM), 0.992 ± 0.077; in test [3] (concentration: 4mM) it was 0.998 ± 0.046; in test [3] (concentration: 6mM), 0.944 ± 0.077; in test [3] (concentration: 8mM), 0.98 ± 0.091; in test [3] (concentration: 10mM), 0.997 ± 0.086. The NP40-soluble protein abundance in test [4] (concentration: 1mM) was determined as 0.957 ± 0.015; in test [4] (concentration: 2mM), 0.974 ± 0.049; in test [4] (concentration: 4mM), 0.949 ± 0.047; in test [4] (concentration: 6mM), 0.932 ± 0.079; in test [4] (concentration: 8mM), 0.94 ± 0.027; in test [4] (concentration: 10mM) it was 0.973 ± 0.05.
